# Screening data, single-dose tests

Chains of the proteins cited; added tags and fusions are not shown. Residues count along the entry.
UniProt Q8IDJ8, 1-583: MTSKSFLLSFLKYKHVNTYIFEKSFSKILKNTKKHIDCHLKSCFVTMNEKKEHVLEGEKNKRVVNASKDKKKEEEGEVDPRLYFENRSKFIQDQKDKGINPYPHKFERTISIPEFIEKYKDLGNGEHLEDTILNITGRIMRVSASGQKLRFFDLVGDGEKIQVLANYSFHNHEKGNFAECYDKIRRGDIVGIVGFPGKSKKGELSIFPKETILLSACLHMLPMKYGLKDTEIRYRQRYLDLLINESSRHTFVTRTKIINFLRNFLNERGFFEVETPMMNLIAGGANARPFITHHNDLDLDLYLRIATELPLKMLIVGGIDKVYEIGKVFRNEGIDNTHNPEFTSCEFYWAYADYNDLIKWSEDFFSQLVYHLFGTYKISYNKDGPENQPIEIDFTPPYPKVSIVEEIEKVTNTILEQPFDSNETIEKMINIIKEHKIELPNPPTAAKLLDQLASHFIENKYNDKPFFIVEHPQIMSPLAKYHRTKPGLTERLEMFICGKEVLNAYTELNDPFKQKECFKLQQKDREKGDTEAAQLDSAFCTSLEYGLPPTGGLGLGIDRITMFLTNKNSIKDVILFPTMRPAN
UniProt A4I591, 1-473: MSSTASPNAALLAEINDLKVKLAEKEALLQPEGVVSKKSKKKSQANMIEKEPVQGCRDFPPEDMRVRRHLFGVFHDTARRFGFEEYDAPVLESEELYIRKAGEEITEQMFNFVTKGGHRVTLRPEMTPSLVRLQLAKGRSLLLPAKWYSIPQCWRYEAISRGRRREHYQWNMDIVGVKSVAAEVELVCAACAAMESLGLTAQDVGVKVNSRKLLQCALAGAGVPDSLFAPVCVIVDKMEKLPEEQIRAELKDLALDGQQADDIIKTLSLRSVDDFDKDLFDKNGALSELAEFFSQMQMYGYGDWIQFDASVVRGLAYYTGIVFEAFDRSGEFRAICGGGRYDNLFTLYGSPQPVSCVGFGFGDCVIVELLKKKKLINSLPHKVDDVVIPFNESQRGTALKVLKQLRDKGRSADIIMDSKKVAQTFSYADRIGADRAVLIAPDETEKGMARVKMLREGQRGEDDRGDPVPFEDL
UniProt Q4DA54, 1-478: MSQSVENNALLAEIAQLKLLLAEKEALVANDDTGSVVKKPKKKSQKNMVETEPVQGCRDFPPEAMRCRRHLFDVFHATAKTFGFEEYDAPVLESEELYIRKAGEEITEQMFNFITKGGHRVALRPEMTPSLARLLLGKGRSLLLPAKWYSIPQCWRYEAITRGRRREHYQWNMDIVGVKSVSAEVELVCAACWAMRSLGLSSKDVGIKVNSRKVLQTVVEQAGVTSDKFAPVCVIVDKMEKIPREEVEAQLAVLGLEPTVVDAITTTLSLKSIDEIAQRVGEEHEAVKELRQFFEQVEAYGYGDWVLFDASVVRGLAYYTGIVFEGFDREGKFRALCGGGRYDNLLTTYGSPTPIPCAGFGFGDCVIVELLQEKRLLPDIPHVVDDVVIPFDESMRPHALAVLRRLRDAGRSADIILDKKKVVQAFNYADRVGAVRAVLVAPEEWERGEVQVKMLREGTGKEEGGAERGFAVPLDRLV
UniProt P9WPC5, whole entry: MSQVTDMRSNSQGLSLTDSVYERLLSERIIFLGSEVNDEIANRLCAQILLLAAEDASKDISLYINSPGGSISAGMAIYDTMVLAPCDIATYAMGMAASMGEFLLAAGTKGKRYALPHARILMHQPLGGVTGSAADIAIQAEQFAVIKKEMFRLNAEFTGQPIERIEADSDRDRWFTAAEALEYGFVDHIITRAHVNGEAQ
UniProt P9WPC3, whole entry partner: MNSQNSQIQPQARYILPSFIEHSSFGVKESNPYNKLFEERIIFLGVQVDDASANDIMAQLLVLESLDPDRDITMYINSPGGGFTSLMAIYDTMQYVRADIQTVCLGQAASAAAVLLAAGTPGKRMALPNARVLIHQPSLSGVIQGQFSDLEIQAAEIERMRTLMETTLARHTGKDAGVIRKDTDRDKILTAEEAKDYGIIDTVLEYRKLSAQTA

Measurements from “University of Dundee, Small-Polar-MMV Screening Library” (2021), ChEMBL document CHEMBL3988442.

Results are given as percent effect.
The record does not define 0% and 100%; most values in the screen are far below 50% and negative numbers occur (in some assays of this library far below -100).
Compounds were drawn at random from those tested, without regard to their results.
Two or more numbers in one place are separate tests of the same structure; such repeats can differ widely.
A dash means the value is not listed here; it may have been measured.

PfKRS1: 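Enzyme assay of the cytosolic lysyl-tRNA synthetase in 384-well plates, read by luminescence. Target: Lysine-tRNA ligase, Plasmodium falciparum 3D7 (UniProt Q8IDJ8). Tested at 30 µM. Direction is inferred from only a few compounds that gave an IC50; most scored high, so higher reads as stronger inhibition. Of about 69,000 compounds tested this way, about 49 (0.071%) reached 50% or more in at least one test.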
LiHisRS: 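Enzyme assay of histidyl-tRNA synthetase; the read-out is not stated. Target: Histidine-tRNA ligase, Leishmania infantum (UniProt A4I591). Concentration: 30 µM. Direction is inferred from retests: higher values go with stronger inhibition. The assay is labelled LdHisRS but filed under L. infantum. Of about 69,000 compounds tested this way, about 410 (0.6%) reached 50% or more in at least one test.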
TcHisRS: 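Enzyme assay of histidyl-tRNA synthetase; the read-out is not stated. Target: Histidine-tRNA ligase, Trypanosoma cruzi CL Brener (UniProt Q4DA54). Tested at 30 µM. Higher reads as stronger inhibition (inferred: compounds with an IC50 in retests scored well above the rest). Of about 69,000 compounds tested this way, about 31 (0.045%) reached 50% or more in at least one test.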
Leishmania in macrophages: 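Cell assay of Leishmania donovani living inside macrophages; the read-out is not stated. Tested at 30 µM. The record gives no direction; compounds that gave an IC50 in retests scored well above the rest, so higher reads as stronger inhibition. Of about 69,000 compounds tested this way, about 1,000 (1.5%) reached 50% or more in at least one test.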
ClpP1P2: 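Protease assay of ClpP1P2, read by the AMC dye that it sets free. Target: ClpP1P2, Mycobacterium tuberculosis (UniProt P9WPC5 and UniProt P9WPC3). Concentration: 50 µM. Higher reads as stronger inhibition, judged from the few compounds that gave an IC50. Most other retested compounds had strongly negative values. About 69,000 compounds were tested under these conditions; 0.015% (about 10) showed 50% or more at least once.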

structure,PfKRS1,LiHisRS,TcHisRS,Leishmania in macrophages,ClpP1P2
Cc1[nH]ncc1C(=O)N1CCN(CC(O)C(C)(C)C)CC1 (stereo unspecified),4.994,-2.128,-0.7634,13.95,16.34
COCC1CCN(S(=O)(=O)N2C[C@H](c3ccccc3)[C@@H](N)C2)CC1,0.04996,6.452,3.247,12.44,-5.713
COCCOC(=O)N1C[C@H]2CC[C@@H]1CN(C1Cc3ccccc3C1)C2,4.194,27.87,2.326,-,-2.287
O=C(CCn1cc(Cl)cn1)Nc1ncccn1,4.027,11.76,3.704,15.71,-0.9942
CN1CCN(C(=O)Cc2csc(-c3ccsc3)n2)C(c2ccccc2)C1 (stereo unspecified),5.447,19.74,4.433,-9.078,-22.74
CO[C@@H]1CCC[C@@H](NC(=O)C(C)(C)c2cccc(F)c2)[C@H]1O,1.061,12.68,4.545,16.97,-14.61
Cn1cc(C2CCCN2CC(=O)N(CCC#N)Cc2ccco2)cn1 (stereo unspecified),-1.271,6.349,-3.59,22.45,-11.84
Cn1ccnc1CN1CCCC(Cc2ccnc3ccncc23)CC1 (stereo unspecified),1.917,43.3,7.778,-,-10.51
O=C(c1ncoc1C1CCCO1)N1CCC2(CCCCC2)CC1 (stereo unspecified),0.3977,25.71,10.39,-13.18,6.559
COc1cc(CNC(=O)Nc2nnc(C(F)(F)F)s2)ccc1O,0.5038,9.524,-4.615,-2.889,3.392
CC(C)n1cc(C(=O)NCCCn2ccnc2)c2n[nH]c(=O)c-2c1,-0.6424,23.91,12,-3.526,-2.84
Cc1noc(C)c1CC(=O)NCC(CC(C)C)N1CCOCC1 (stereo unspecified),1.409,17.02,8.671,16.82,4.544
O=C1CC(c2ccncc2)C2(CCN(CC3CC3)CC2)N1 (stereo unspecified),-3.633,-2.778,2.857,-,-11.48
COCCNC(=O)Cn1nc(C(C)C)c2cnn(C(C)(C)C)c2c1=O,-3.837,25,4.132,14.64,1.702
CN1CCOC2(CCCN(C(=O)C3CCCCC3)C2)C1 (stereo unspecified),-0.7342,17.48,3.883,-,5.76
CN(Cc1cnn(C)c1)CC(O)c1ccc2c(c1)OCCCO2 (stereo unspecified),0.82,-4.819,3.867,-13.82,-10.34
CCc1nc(C)c(C(=O)N[C@@H]2c3ccccc3C[C@@H]2O)o1,3.073,8.333,0.8696,-22.06,15.41
CC(C)(C(N)=O)N1CCN(C(=O)c2ccn(-c3cccc(Cl)c3)n2)CC1,0.09842,3.571,2.305,29.25,-14.04
Cc1cc(-n2cncn2)ccc1C(=O)N(CC(F)(F)F)C(C)C,8.361,22.81,5.882,15.31,14.9
CN(C)C(=O)c1nnc2ccc(N3CCOCC3)cc2n1,3.884,6.897,0,-22.41,-8.499
O=C([C@H]1COC[C@H]2CN(C3CCOCC3)C[C@H]21)N1CCCO1,4.878,27.78,2.488,-,-14.08
Fc1ccc(COCC2CCN(Cc3ccccn3)CC2)cc1.O=C(O)C(=O)O,-,-,-,3.095,-
Cc1ccc(N2C[C@@H]3CN(Cc4ccsc4)CCO[C@@H]3C2)nn1,-1.36,32,0,-,4.051
O=C(CSC1CCCC1)N1CCN(c2ccc(-n3cncn3)nn2)CC1,3.927,3.478,1.031,2.895 & 24.95,-8.816
COc1ccc(CN(C)CC(=O)c2ccc3[nH]c(=O)[nH]c3c2)cc1F,0.3623,24.05,6.466,4.871,-18.4
Cc1cc(C)n(CC(=O)N2CCC(c3nc(C)no3)CC2)n1,6.954,-24.04,1.626,7.786,-2.168
CS(=O)(=O)N1CCCc2sc(C(=O)NC3CC3)nc21,3.117,12.28,2.186,25.5,-18.14
CCn1ccnc1CNc1nccc(-c2c(C)nn(C)c2C)n1,3.613,5.479,0.5405,10.11,-8.183
CCc1nc(C2CCCN2C(=O)CCNS(C)(=O)=O)no1 (stereo unspecified),3.837,21.54,-1.149,29.89,19.05
CN1[C@H](Cn2cncn2)C[C@@H]2CN(C3CCOCC3)CC[C@@H]21,5.931,20,5.747,-,4.165
CN(C)C(=O)CC1CC2(CCN(Cc3cccs3)CC2)c2ccccc21 (stereo unspecified),-2.119,10.26,0,-,-9.528
Cl.Cn1ccnc1C1(O)CCN(C(=O)CCc2ccccc2)CC1,-,-,-,21.28,-
CCC(C)N(Cc1cnc(OC)nc1)Cc1ccsc1 (stereo unspecified),-0.4581,6.557,5.579,-13.45,-0.9737
CC(C)N1C[C@@H](CO)[C@H](c2ccccc2)S1(=O)=O,1.895,-16.49,0,22.46,-12.17
O=C(O)C(F)(F)F.[H][C@@]12CCN(c3ccc(C)nn3)[C@]1([H])CC[C@@H](C(=O)N1CCCCO1)O2,-,-,-,8.783,-
Cc1[nH]c2ccccc2c1-c1ccnc(N[C@@H](CO)C(C)C)n1,3.195,5.714,9.04,-0.8737 & 1.394,6.25
CC(=O)N1CCCN(C(=O)c2ccc(=O)n(C)c2)c2ccccc21,-0.4877,-7.273,4.094,25.67,-7.969
CC(C)N1CCN(C(=O)c2ccccc2NCc2cccnc2)CC1,-1.189,14.29,7,-12.03,-7.902
CC(C)C(=O)NCc1ccc(N(C)C)cc1,-0.9347,15.04,4.373,-4.266,-30.66
CN(CCOc1ccc(Br)cc1)Cc1cscn1,-0.3874,0.8403,7.843,-27.74,-9.348
CN1CC(=O)N(c2ccsc2)CC12CCN(C(=O)CC1CCCC1)C2.O=C(O)C(F)(F)F (stereo unspecified),-,-,-,26,-

Once more, the final 4:

* CC(C)N1CCN(C(=O)c2ccccc2NCc2cccnc2)CC1 | PfKRS1: -1.189%; LiHisRS: 14.29%; TcHisRS: 7%; Leishmania in macrophages: -12.03%; ClpP1P2: -7.902%
* CC(C)C(=O)NCc1ccc(N(C)C)cc1 | PfKRS1: -0.9347%; LiHisRS: 15.04%; TcHisRS: 4.373%; Leishmania in macrophages: -4.266%; ClpP1P2: -30.66%
* CN(CCOc1ccc(Br)cc1)Cc1cscn1 | PfKRS1: -0.3874%; LiHisRS: 0.8403%; TcHisRS: 7.843%; Leishmania in macrophages: -27.74%; ClpP1P2: -9.348%
* CN1CC(=O)N(c2ccsc2)CC12CCN(C(=O)CC1CCCC1)C2.O=C(O)C(F)(F)F (stereo unspecified) | Leishmania in macrophages: 26%